Results: publication doi:10.1101/2024.04.30.591829
Results are given in words; binding and its absence hold for the method and conditions named. In cells and extracts the contact can be indirect. Where a sequence is shown, tags or fusion partners need not be part of it.

Target: T1, Tom71-HA (S. cerevisiae) (UniProt P38825)
T1 sequence: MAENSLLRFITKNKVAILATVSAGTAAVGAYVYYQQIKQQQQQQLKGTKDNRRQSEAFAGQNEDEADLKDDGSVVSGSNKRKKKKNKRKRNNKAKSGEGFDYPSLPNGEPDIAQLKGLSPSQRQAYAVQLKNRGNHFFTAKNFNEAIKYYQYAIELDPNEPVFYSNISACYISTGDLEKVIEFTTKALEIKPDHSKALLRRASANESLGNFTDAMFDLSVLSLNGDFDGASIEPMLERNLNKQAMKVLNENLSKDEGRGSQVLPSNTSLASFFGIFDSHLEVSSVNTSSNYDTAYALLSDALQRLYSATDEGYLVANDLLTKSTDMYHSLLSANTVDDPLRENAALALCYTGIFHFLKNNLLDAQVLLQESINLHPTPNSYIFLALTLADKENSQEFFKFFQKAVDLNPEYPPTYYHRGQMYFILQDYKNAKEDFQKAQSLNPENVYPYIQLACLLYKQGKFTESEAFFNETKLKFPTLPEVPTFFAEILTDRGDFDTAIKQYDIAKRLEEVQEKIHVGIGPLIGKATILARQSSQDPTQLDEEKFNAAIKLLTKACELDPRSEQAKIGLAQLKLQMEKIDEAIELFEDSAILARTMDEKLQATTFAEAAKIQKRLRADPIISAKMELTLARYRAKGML
Assay: co-IP

B1: Flag-Pex19 (protein, UniProt Q07418 1-342)
chain: MNENEYDNFDDLDDLLDEDPTKLDEAEPDDVQAKGSVYNDSENKEKNAESKDSDGVQVANESEEDPELKEMMVDLQNEFANLMKNNGNENNVKTEDFNKLISALEEAAKVPHQQMEQGCSSLKSNSTDKGTVNGSNPGFKNIVSNTLDRLKENGNKVDTSLAEETKESQRSGQNNNIDDILSQLLDQMVASGGKESAENQFDLKDGEMDDAITKILDQMTSKEVLYEPMKEMRSEFGVWFQENGENEEHKEKIGTYKRQFNIVDEIVNIYELKDYDELKHKDRVTELLDELEQLGDSPIRSANSPLKHGNEEEELMKMLEIDGNDPNLGNLDKELTDGCKQQ
For B1, the binding was “no binding”.
